In this experiment the target is T1, Flag-tagged CD82 (wild type) (human) (UniProt P27701).
T1 sequence (chain, N-glycosylated at Asn129, Asn157 and Asn198): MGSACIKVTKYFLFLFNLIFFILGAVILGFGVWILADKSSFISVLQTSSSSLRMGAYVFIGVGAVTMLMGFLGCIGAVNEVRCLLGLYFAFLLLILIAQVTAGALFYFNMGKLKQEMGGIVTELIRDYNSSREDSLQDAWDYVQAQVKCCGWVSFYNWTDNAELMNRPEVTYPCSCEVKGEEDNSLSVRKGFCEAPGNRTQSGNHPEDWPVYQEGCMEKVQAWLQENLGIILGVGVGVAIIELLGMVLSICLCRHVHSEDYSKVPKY
Put plainly: co-IP; anti-Flag antibody and G-agarose beads overnight, lysates of stable ES2 cells in IP buffer (50 mM Tris-HCl pH 7.4, 150 mM NaCl, 0.1% NP-40, 5 mM EDTA); western blot of the precipitate.

These are yes or no findings as the source states them, for the method shown. Binding seen in cells or lysates may run through a third protein. Some binding calls cover weakened binding; strength is not graded here. Where a sequence is shown, tags or fusion partners need not be part of it.

B1: glycosyltransferase MGAT3 (enzyme, UniProt Q09327 1-533)
chain: MKMRRYKLFLMFCMAGLCLISFLHFFKTLSYVTFPRELASLSPNLVSSFFWNNAPVTPQASPEPGGPDLLRTPLYSHSPLLQPLPPSKAAEELHRVDLVLPEDTTEYFVRTKAGGVCFKPGTKMLERPPPGRPEEKPEGANGSSARRPPRYLLSARERTGGRGARRKWVECVCLPGWHGPSCGVPTVVQYSNLPTKERLVPREVPRRVINAINVNHEFDLLDVRFHELGDVVDAFVVCESNFTAYGEPRPLKFREMLTNGTFEYIRHKVLYVFLDHFPPGGRQDGWIADDYLRTFLTQDGVSRLRNLRPDDVFIIDDADEIPARDGVLFLKLYDGWTEPFAFHMRKSLYGFFWKQPGTLEVVSGCTVDMLQAVYGLDGIRLRRRQYYTMPNFRQYENRTGHILVQWSLGSPLHFAGWHCSWCFTPEGIYFKLVSAQNGDFPRWGDYEDKRDLNYIRGLIRTGGWFDGTQQEYPPADPSEHMYAPKYLLKNYDRFHYLLDNPYQEPRSTAAGGWRHRGPEGRPPARGKLDEAEV
With B1, the binding result was “binds”.
